Experimental data from US6207393A, “Inhibition of intracellular signal transduction by 14-3-3-binding peptides” (Washington University, priority 1999, dated 2001).
At least one peptide structure holds a part that was inferred or is arguable (an end, a ring closure or a residue). Where a SMILES comes first, the peptide text is derived from it. [ ]: non-standard residue; d: D form. pS = N[C@@H](COP(=O)(O)O)C(=O)O

Assays:
Xenopus oocytes = test: Insulin-stimulated oocyte maturation (germinal vesicle breakdown) after peptide microinjection; type: cell-based; conditions: 50 nmoles peptide per oocyte, insulin 8.25 μg/ml, 24 hours
14-3-3 zeta = target: T1, 14-3-3 zeta (Homo sapiens, UniProt P63104); test: SPR competitive inhibition of 14-3-3 zeta binding to chip-coupled phosphorylated Raf-259 peptide
T1 construct: made in house; host or cells: E. coli DH5α (vector pGEX-KT)
T1 sequence (P63104 1-245): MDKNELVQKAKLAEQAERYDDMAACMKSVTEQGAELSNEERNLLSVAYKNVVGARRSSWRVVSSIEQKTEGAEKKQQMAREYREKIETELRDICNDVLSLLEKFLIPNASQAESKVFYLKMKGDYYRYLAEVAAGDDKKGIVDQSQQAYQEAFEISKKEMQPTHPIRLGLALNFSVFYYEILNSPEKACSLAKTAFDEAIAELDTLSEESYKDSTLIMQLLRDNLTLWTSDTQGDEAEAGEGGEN
Method: The ability of each peptide to inhibit binding of 14-3-3 zeta to the phosphorylated peptide was then tested in a range of concentrations between 1 and 50 μM. 14-3-3 zeta was prepared according to the methods in Example 1 and binding affinities and specificities were determined using the peptides in Table 2. The 14-3-3 zeta fusion proteins (0.5-1.0 μM) were pre-incubated with a given peptide at concentrations between 1 μM and 50 μM. 14-3-3 zeta was then infused across a sensor chip surface which had been previously coupled with the phosphorylated Raf-259 peptide (SEQ ID NO: 4). IC50 values were determined by plotting the concentration of competitor peptide required to achieve a 50% reduction in equilibrium binding.

Structure (SMILES): CC[C@H](C)[C@H](NC(=O)[C@H](CCCCN)NC(=O)[C@@H]1CCCN1C(=O)[C@@H](N)CC(C)C)C(=O)N[C@@H](CC(N)=O)C(=O)N[C@@H](CCCNC(=N)N)C(=O)N[C@@H](CO)C(=O)N[C@@H](C)C(=O)N[C@@H](COP(=O)(O)O)C(=O)N[C@@H](CCC(=O)O)C(=O)N1CCC[C@H]1C(=O)N[C@@H](CO)C(=O)N[C@@H](CC(C)C)C(=O)N[C@@H](Cc1c[nH]cn1)C(=O)N[C@@H](CCCNC(=N)N)C(=O)O [pS-Raf-621, Leu-Pro-Lys-Ile-Asn-Arg-Ser-Ala-Xaa-Glu-Pro-Ser-Leu-His-Arg] (H-LPKINRSA[pS]EPSLHR-OH)
- inhibition of insulin stimulated GVBD (Xenopus oocytes): significantly inhibited insulin stimulated GVBD
- affinity relative to the raf-259 peptide (SEQ ID NO: 5) (14-3-3 zeta): six times higher
